Measured values as given in the supplement of paper PMC6411743.
± gives the standard deviation of the averaged measurements. The entries are a selection whose mix differs from that of the whole data set. Small differences around the control level are noise.

Amino acid sequences for entries named in this document (tags omitted). A change or cut given only in a name is not applied to a line headed by its entry.
UniProt Q9H7E9: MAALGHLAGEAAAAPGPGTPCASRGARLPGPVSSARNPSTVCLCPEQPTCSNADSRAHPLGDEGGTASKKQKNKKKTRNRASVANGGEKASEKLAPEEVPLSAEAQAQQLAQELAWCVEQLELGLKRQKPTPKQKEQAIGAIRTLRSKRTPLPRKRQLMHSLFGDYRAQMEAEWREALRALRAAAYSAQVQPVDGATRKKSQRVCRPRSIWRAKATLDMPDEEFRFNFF
UniProt Q9H944: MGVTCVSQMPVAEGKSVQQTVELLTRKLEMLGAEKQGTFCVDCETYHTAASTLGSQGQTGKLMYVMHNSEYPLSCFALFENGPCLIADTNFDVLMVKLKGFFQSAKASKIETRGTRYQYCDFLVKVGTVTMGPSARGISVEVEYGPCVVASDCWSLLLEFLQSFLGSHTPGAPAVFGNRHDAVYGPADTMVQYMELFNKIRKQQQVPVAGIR
UniProt Q9HCM1: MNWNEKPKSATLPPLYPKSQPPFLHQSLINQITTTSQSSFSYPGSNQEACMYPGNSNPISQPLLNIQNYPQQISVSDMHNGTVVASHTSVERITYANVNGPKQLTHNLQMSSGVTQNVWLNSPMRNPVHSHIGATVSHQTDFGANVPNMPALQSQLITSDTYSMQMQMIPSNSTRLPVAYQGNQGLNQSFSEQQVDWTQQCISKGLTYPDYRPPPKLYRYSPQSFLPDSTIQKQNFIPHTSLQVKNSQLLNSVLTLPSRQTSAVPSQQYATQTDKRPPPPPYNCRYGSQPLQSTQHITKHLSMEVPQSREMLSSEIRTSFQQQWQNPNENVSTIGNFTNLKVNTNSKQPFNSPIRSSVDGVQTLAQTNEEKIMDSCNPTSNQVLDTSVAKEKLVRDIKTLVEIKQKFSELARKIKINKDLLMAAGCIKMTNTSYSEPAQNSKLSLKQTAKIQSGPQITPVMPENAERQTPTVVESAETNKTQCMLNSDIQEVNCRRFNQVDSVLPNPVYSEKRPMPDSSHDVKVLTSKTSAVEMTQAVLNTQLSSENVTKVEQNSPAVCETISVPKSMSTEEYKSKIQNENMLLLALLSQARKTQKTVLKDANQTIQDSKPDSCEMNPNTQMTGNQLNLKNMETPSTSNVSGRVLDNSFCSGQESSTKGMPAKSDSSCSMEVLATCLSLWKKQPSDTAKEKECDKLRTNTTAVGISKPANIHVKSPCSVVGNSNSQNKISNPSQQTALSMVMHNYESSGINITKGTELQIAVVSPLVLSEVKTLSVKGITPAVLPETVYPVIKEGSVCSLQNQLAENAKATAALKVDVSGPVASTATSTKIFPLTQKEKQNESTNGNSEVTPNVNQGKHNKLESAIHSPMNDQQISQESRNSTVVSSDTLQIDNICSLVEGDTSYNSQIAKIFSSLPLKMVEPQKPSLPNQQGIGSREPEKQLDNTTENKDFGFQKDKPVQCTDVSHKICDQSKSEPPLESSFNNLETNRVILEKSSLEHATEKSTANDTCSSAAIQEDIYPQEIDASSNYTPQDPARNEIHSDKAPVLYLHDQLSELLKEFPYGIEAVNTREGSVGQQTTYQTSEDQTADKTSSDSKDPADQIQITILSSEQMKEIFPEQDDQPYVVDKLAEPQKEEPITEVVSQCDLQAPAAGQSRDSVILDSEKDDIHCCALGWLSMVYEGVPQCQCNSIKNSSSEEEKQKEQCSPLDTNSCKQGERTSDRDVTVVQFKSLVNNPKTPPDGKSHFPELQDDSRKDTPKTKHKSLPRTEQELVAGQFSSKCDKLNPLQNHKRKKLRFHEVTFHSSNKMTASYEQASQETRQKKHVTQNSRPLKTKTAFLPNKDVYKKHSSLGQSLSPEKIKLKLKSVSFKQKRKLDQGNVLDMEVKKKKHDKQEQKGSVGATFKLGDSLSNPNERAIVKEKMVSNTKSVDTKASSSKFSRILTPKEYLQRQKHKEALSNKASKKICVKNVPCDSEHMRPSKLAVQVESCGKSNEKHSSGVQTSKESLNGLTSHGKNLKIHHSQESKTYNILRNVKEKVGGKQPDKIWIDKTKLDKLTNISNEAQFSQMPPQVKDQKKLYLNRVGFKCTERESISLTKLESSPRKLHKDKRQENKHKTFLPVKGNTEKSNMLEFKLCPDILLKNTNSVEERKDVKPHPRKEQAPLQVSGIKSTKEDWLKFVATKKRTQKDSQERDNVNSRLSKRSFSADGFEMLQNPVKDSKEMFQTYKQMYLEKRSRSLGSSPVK
UniProt Q9HA65: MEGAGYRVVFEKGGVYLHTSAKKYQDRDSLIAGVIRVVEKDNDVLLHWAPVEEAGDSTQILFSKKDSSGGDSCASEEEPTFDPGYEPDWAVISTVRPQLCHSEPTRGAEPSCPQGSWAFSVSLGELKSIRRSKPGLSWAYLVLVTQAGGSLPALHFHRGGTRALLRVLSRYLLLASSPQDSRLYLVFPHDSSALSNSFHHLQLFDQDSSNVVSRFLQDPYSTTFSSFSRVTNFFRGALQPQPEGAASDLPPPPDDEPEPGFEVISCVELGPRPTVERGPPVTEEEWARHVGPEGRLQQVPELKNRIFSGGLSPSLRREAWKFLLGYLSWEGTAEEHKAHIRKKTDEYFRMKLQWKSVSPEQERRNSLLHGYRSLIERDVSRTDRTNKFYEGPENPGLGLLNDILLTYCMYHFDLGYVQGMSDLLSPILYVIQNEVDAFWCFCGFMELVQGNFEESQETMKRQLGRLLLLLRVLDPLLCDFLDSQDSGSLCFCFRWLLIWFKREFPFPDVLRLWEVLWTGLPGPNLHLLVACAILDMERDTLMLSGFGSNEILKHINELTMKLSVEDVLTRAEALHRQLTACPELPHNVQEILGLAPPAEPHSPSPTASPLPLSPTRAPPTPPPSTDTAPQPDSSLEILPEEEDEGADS
UniProt Q9H1D9: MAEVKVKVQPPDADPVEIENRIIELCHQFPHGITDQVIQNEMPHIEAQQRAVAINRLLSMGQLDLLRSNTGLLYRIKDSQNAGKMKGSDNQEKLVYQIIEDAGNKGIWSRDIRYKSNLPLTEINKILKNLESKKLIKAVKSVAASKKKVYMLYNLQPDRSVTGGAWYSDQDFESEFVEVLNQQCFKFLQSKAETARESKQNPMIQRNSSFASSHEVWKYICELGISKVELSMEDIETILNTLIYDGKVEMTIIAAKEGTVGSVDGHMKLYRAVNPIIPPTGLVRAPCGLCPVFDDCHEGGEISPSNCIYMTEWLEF
UniProt Q9H4L5: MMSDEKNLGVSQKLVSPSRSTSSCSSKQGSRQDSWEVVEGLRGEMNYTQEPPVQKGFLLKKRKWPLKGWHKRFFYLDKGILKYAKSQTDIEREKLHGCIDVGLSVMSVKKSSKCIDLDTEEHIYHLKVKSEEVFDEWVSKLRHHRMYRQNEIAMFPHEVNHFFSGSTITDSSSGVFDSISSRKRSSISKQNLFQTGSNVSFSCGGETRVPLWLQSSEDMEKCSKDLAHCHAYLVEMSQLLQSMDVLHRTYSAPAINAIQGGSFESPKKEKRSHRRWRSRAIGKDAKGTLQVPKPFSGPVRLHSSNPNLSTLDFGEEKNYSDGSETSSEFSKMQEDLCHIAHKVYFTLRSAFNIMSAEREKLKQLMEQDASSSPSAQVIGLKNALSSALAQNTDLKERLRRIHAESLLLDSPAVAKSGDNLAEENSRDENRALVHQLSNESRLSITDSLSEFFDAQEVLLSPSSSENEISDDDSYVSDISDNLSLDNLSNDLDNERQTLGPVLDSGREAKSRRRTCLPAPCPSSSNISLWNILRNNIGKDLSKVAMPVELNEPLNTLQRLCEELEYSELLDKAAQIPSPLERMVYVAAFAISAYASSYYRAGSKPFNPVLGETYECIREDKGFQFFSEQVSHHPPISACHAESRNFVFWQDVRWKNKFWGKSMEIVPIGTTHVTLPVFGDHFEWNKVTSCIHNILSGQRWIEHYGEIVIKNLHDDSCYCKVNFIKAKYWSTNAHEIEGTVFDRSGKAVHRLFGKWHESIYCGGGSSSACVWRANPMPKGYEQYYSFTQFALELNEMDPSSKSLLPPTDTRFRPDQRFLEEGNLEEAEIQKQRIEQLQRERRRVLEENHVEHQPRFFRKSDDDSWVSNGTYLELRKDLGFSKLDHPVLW
UniProt Q9H098: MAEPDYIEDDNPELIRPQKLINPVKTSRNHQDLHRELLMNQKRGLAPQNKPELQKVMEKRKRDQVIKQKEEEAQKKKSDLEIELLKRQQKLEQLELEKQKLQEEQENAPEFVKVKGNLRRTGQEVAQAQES
UniProt Q9H3Z4: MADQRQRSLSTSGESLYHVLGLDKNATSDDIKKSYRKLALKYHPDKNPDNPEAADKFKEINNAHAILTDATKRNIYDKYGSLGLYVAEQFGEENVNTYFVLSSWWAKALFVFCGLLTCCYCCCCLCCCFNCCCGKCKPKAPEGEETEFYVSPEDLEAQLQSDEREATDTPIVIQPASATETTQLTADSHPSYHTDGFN
UniProt Q9H6S1, whole entry: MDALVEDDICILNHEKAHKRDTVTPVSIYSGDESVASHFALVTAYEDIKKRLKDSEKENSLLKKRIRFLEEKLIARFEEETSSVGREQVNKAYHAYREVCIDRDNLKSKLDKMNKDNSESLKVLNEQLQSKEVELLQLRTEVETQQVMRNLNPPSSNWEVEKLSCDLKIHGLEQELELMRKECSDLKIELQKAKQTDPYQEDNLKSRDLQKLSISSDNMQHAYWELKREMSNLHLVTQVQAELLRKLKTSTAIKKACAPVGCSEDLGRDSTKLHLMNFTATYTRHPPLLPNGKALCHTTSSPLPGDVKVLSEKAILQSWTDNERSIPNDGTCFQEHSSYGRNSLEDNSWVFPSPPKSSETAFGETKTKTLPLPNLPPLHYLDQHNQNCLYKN
UniProt Q9H4A4: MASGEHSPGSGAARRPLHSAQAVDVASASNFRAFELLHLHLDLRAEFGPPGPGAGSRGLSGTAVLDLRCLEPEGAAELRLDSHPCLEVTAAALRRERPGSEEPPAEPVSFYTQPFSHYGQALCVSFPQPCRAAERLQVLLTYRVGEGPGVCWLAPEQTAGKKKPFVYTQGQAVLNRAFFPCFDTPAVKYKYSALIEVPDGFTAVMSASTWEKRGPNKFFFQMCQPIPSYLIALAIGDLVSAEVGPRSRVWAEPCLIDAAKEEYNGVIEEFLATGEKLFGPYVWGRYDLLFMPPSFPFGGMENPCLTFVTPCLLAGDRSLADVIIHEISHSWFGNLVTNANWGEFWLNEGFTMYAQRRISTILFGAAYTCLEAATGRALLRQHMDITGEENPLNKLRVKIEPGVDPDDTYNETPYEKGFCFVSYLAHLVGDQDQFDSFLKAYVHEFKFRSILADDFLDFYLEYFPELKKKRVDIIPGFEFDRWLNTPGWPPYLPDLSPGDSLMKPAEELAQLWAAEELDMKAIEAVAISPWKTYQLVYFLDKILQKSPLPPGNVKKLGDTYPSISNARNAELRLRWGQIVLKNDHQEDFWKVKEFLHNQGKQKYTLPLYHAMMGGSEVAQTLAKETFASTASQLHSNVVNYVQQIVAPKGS
UniProt Q9GZZ9, whole entry: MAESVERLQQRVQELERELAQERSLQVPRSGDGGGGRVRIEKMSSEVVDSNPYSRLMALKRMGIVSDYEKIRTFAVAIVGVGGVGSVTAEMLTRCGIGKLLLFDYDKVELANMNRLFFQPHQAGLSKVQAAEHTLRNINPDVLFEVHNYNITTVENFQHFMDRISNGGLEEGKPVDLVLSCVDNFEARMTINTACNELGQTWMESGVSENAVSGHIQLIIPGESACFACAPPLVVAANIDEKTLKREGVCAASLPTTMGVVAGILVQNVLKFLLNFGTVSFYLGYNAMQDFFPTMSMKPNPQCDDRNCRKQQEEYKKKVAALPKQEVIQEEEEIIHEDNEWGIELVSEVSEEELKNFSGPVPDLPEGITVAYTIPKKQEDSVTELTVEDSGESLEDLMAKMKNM
UniProt Q9H444: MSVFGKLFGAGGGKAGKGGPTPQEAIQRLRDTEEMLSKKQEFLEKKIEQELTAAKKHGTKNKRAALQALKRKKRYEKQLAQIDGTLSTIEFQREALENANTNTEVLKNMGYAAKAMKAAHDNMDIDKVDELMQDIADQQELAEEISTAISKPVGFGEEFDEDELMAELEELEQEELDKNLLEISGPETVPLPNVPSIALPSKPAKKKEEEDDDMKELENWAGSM
UniProt Q9H0F6: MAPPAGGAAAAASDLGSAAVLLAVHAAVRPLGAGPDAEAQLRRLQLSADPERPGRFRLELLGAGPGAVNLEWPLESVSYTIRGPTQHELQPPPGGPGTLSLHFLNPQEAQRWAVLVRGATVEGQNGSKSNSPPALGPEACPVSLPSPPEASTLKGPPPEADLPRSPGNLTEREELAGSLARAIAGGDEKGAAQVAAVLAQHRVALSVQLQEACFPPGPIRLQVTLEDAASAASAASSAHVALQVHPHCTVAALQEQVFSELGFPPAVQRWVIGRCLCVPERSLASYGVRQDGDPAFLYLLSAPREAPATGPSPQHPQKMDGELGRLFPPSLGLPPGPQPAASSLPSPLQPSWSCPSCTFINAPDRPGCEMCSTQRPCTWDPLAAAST

Compound: Nc1ncnc2c1ncn2[C@@H]1O[C@H](COP(=O)(O)OP(=O)(O)OP(=O)(O)O)[C@@H](O)[C@H]1O [adenosine triphosphate]
Experiment: NP40-soluble protein abundance relative to vehicle (solubility fold change) (ratio); higher = more soluble protein in presence of ATP
Procedure, shortened: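 Crude Jurkat lysate, prepared by Dounce homogenisation, was exposed to eight concentrations from 0.1 to 10 mM for 10 min at room temperature and then 3 min at 37 °C. Solubilisation used 0.8% NP40 with benzonase for 60 min at 4 °C, followed by ultracentrifugation and TMT labelling of the supernatant for LC-MS/MS. After vsn normalisation of intensities, each value is the fold change against the detergent-processed vehicle within each replicate, across three independent experiments.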

Row | Target | NP40-soluble protein abundance (concentration: 0.1mM) | NP40-soluble protein abundance (concentration: 0.5mM)
1 | UniProt Q9H903 and related entries | 1.08 ± 0.083 | 0.994 ± 0.049
2 | UniProt Q9H7E9 and related entries | 0.915 ± 0.15 | 0.925 ± 0.21
3 | MED20 (UniProt Q9H944) | 0.991 ± 0.025 | 1.02 ± 0.022
4 | UniProt Q9HD26 and related entries | 1.01 ± 0.028 | 1.03 ± 0.11
5 | UniProt Q9H8M2 and related entries | 0.996 ± 0.012 | 1.05 ± 0.046
6 | UniProt Q9HCM1 | 0.98 ± 0.1 | 1 ± 0.16
7 | UniProt Q9H425 and related entries | 0.987 ± 0.06 | 1 ± 0.066
8 | UniProt Q9H008 and related entries | 0.984 ± 0.047 | 0.983 ± 0.02
9 | UniProt Q9HA65 and related entries | 0.963 ± 0.029 | 0.982 ± 0.013
10 | POLR3F (UniProt Q9H1D9) | 1.04 ± 0.039 | 0.984 ± 0.049
11 | OSBPL3 (UniProt Q9H4L5) | 1.04 ± 0.019 | 1.09 ± 0.048
12 | UniProt Q9H098 and related entries | 0.915 ± 0.17 | 1.01 ± 0.09
13 | UniProt Q9H3Z4 and related entries | 0.971 ± 0.076 | 0.934 ± 0.042
14 | UniProt Q9H3R0 and related entries | 1.11 ± 0.092 | 1.016 ± 0.0026
15 | WDR12 (UniProt Q9GZL7) | 1.03 ± 0.071 | 1.03 ± 0.065
16 | TNKS1BP1 (UniProt Q9C0C2) | 1.02 ± 0.057 | 1.07 ± 0.12
17 | AZI2 (UniProt Q9H6S1) | 0.973 ± 0.09 | 0.935 ± 0.14
18 | UniProt Q9H9E3 and related entries | 1.03 ± 0.029 | 1.01 ± 0.058
19 | UniProt Q9H4A4 and related entries | 1.05 ± 0.057 | 1.05 ± 0.041
20 | UBA5 (UniProt Q9GZZ9) | 1.01 ± 0.058 | 1.03 ± 0.056
21 | UniProt Q9H330 and related entries | 0.982 ± 0.034 | 0.941 ± 0.058
22 | WDR13 (UniProt Q9H1Z4) | 0.996 ± 0.29 | 1.04 ± 0.067
23 | EHD4 (UniProt Q9H223) | 1.04 ± 0.052 | 1.03 ± 0.042
24 | VPS16 (UniProt Q9H269) | 1.05 ± 0.06 | 0.971 ± 0.056
25 | DSN1 (UniProt Q9H410) | 1 ± 0.021 | 0.989 ± 0.023
26 | CHMP4B (UniProt Q9H444) | 0.998 ± 0.11 | 1.02 ± 0.17
27 | SHARPIN (UniProt Q9H0F6) | 0.99 ± 0.028 | 0.931 ± 0.042
28 | UniProt Q9H334 and related entries | 0.985 ± 0.041 | 1 ± 0.064
29 | WDR61 (UniProt Q9GZS3) | 1.04 ± 0.068 | 1.04 ± 0.042
30 | UniProt Q9H7X7 and related entries | 0.978 ± 0.029 | 1.01 ± 0.023

Quoted from above: entries 8–14
Row | Target | NP40-soluble protein abundance (concentration: 0.1mM) | NP40-soluble protein abundance (concentration: 0.5mM)
8 | UniProt Q9H008 and related entries | 0.984 ± 0.047 | 0.983 ± 0.02
9 | UniProt Q9HA65 and related entries | 0.963 ± 0.029 | 0.982 ± 0.013
10 | POLR3F (UniProt Q9H1D9) | 1.04 ± 0.039 | 0.984 ± 0.049
11 | OSBPL3 (UniProt Q9H4L5) | 1.04 ± 0.019 | 1.09 ± 0.048
12 | UniProt Q9H098 and related entries | 0.915 ± 0.17 | 1.01 ± 0.09
13 | UniProt Q9H3Z4 and related entries | 0.971 ± 0.076 | 0.934 ± 0.042
14 | UniProt Q9H3R0 and related entries | 1.11 ± 0.092 | 1.016 ± 0.0026
